Source: the supplement of paper PMC4635364
Structures can show the parent of a compound that is named as a salt. The list shows a part of the results. This data set is noisy: repeats of one test often differ as much as different tests do.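 ReNCell VM, a human fetal ventral-midbrain neural progenitor line, was differentiated without mitogens. Blinded raters scored images stained for doublecortin (early neurons) or tyrosine hydroxylase (dopaminergic neurons) against untreated wells (0 = no change). Scores were averaged across repeats and both raters, and compounds averaging 2 or more were selected as hits for retesting.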 *1 amine or outer side, *2 acyl side, *3 side chain or, on linkers, in order; H or OH if unused. Where a SMILES comes first, the peptide text is derived from it. Bridges are numbered along the chain shown (N, C = ends). Roman numbers before positions name the chains, in order. [ ]: non-standard residue; d: D form. Actinocin(9to1) = Cc1c2oc3c(C)ccc(C(=O)[*:1])c3nc-2c(C(=O)[*:2])c(N)c1=O; NMeV = CN[C@H](C(=O)O)C(C)C; Sar = CNCC(=O)O

Key:
ReNCell VM [1] = experiment: neuronal differentiation score (DCX+ cell fraction vs untreated, manual image score) (score (-3 to 3)); higher = more neuronal differentiation; conditions: 2 uM, 2 weeks
ReNCell VM [2] = experiment: dopaminergic neuron differentiation score (TH+ cell fraction vs untreated, manual image score) (score (0 to 3)); higher = more TH+ dopaminergic neuron differentiation; conditions: 2 uM, 4 weeks, BDNF 10 ng/ml + GDNF 10 ng/ml

For `CC(C)NC[C@@H](O)COc1cccc2ccccc12` [(R)-(+)-Propranolol hydrochloride], the neuronal differentiation score (ReNCell VM [1]; library: Tocriscreen) was inactive: 0 and the “dopaminergic neuron differentiation score” value (ReNCell VM [2]; library: Tocriscreen) was inactive: 0.
With `COc1cc(OC)c2c(OC)c(-c3ccc4c(c3)OCO4)c(=O)oc2c1` the neuronal differentiation score (ReNCell VM [1]; library: Spectrum) was inactive: 0 and the “dopaminergic neuron differentiation score” value (ReNCell VM [2]; library: Spectrum) was inactive: 0.
In the case of `COc1cc([C@@H]2c3cc4c(cc3[C@@H](O[C@@H]3O[C@@H]5CO[C@@H](c6cccs6)O[C@H]5[C@H](O)[C@H]3O)[C@H]3COC(=O)[C@H]23)OCO4)cc(OC)c1O`, the neuronal differentiation score (ReNCell VM [1]; library: Spectrum) was inactive: 0 and the “dopaminergic neuron differentiation score” value (ReNCell VM [2]; library: Spectrum) was inactive: 0.
With `CCCc1nc(C)c2c(O)nc(-c3cc(S(=O)(=O)N4CCN(CC)CC4)ccc3OCC)nn12` the neuronal differentiation score (ReNCell VM [1]; library: Spectrum) was inactive: 0 and the “dopaminergic neuron differentiation score” value (ReNCell VM [2]; library: Spectrum) was inactive: 1.
In the case of `Cn1c2c(c(=O)c3ccccc31)CC(O)C(C)(C)O2` (centres undefined) [ribalinine], the neuronal differentiation score (ReNCell VM [1]; library: Natural) was inactive: -1 and the “dopaminergic neuron differentiation score” value (ReNCell VM [2]; library: Natural) was inactive: 0.
`CC/C(=C(\c1ccccc1)c1ccc(OCCN(C)C)cc1)c1ccccc1` was tested, and the neuronal differentiation score (ReNCell VM [1]; library: Spectrum) was inactive: 0 and the “dopaminergic neuron differentiation score” value (ReNCell VM [2]; library: Spectrum) was inactive: 0.
`Nc1c(Br)cc(Br)cc1CN[C@H]1CC[C@H](O)CC1` was tested, and the neuronal differentiation score (ReNCell VM [1]; library: Spectrum) was inactive: 0 and the “dopaminergic neuron differentiation score” value (ReNCell VM [2]; library: Spectrum) was inactive: 0.
For `Cc1c2oc3c(C)ccc(C(=O)N[C@@H]4C(=O)N[C@H](C(C)C)C(=O)N5CCC[C@H]5C(=O)N(C)CC(=O)N(C)[C@@H](C(C)C)C(=O)O[C@@H]4C)c3nc-2c(C(=O)N[C@@H]2C(=O)N[C@H](C(C)C)C(=O)N3CCC[C@H]3C(=O)N(C)CC(=O)N(C)[C@@H](C(C)C)C(=O)O[C@@H]2C)c(N)c1=O` (I: T[dV]P[Sar][NMeV] / II: T[dV]P[Sar][NMeV]; ester I:1-I:C, II:1-II:C; linker I:N-II:N via Actinocin(9to1)), the neuronal differentiation score (ReNCell VM [1]; library: Spectrum) was inactive: 0 and the “dopaminergic neuron differentiation score” value (ReNCell VM [2]; library: Spectrum) was inactive: 0.
In the case of `CC(=O)N[C@@H](CS)C(=O)O` [Acetylcysteine], the neuronal differentiation score (ReNCell VM [1]; library: Prestwick) was inactive: 0 and the “dopaminergic neuron differentiation score” value (ReNCell VM [2]; library: Prestwick) was inactive: 0.
`O=c1ccc2cc(O)c(O)cc2o1` [Esculetin] was tested, and the neuronal differentiation score (ReNCell VM [1]; library: Phytochemical) was inactive: 0 and the “dopaminergic neuron differentiation score” value (ReNCell VM [2]; library: Phytochemical) was inactive: 0.
For `CNC(=O)c1c(I)c(C(=O)NCC(=O)Nc2c(I)c(C(=O)O)c(I)c(C(=O)NCCO)c2I)c(I)c(N(C)C(C)=O)c1I` [Ioxaglic acid], the neuronal differentiation score (ReNCell VM [1]; library: Prestwick) was inactive: 0 and the “dopaminergic neuron differentiation score” value (ReNCell VM [2]; library: Prestwick) was inactive: 0.
With `Oc1ccc(OCc2ccccc2)cc1` [Monobenzone] the neuronal differentiation score (ReNCell VM [1]; library: Prestwick) was inactive: 0 and the “dopaminergic neuron differentiation score” value (ReNCell VM [2]; library: Prestwick) was inactive: 0.
With `N=C(N)NC(=N)Nc1ccccc1` the neuronal differentiation score (ReNCell VM [1]; library: Spectrum) was inactive: 0 and the “dopaminergic neuron differentiation score” value (ReNCell VM [2]; library: Spectrum) was inactive: 0.
For `CC(=O)O[C@H]1C[C@@H](OC(C)=O)C(C)(C)C2CC(=O)[C@]3(C)C(CC[C@@]4(C)[C@H](C(=O)O)OC(=O)C5OC543)[C@]21C` (some centres undefined), the neuronal differentiation score (ReNCell VM [1]; library: Spectrum) was inactive: 0 and the “dopaminergic neuron differentiation score” value (ReNCell VM [2]; library: Spectrum) was inactive: 0.
`O=C1c2c(O)cccc2C([C@@H]2O[C@H](CO)[C@@H](O)[C@H](O)[C@H]2O)c2cc(CO)cc(O)c21` (some centres undefined) was tested, and the neuronal differentiation score (ReNCell VM [1]; library: Spectrum) was inactive: 0 and the “dopaminergic neuron differentiation score” value (ReNCell VM [2]; library: Spectrum) was inactive: 0.
In the case of `NC(N)=NC(N)=Nc1ccccc1` [1-Phenylbiguanide], the neuronal differentiation score (ReNCell VM [1]; library: LOPAC) was inactive: 0 and the “dopaminergic neuron differentiation score” value (ReNCell VM [2]; library: LOPAC) was inactive: 0.
In the case of `CC(C)(Sc1cc(C(C)(C)C)c(O)c(C(C)(C)C)c1)Sc1cc(C(C)(C)C)c(O)c(C(C)(C)C)c1` [Probucol], the neuronal differentiation score (ReNCell VM [1]; library: Prestwick) was inactive: 0 and the “dopaminergic neuron differentiation score” value (ReNCell VM [2]; library: Prestwick) was inactive: 0.
